Test results as given in patent US6680336B2, “Cyclic AMP-specific phosphodiesterase inhibitors” (ICOS Corporation, priority 1999, dated 2004).
At least one structure is not confirmed: it was looked up by name or label, or the drawing left a doubt.

Molecular target: T1, recombinant human PDE4
T1 construct: PDE4 IC50; other: human recombinant PDE4
Assay: PDE4 inhibition, charcoal separation [32P]cAMP phosphodiesterase assay
Type: biochemical
Experimental: The compounds of structural formula (II) were tested for an ability to inhibit PDE4. The ability of a compound to inhibit PDE4 activity is related to the IC50 value for the compound, i.e., the concentration of inhibitor required for 50% inhibition of enzyme activity. The IC50 value for compounds of structural formula (II) were determined using recombinant human PDE4. […]
Phosphodiesterase activity of the preparations was determined as follows. […] The [32P]5′-AMP or [32P]5′-GMP then was quantitatively converted to free [32P]phosphate and unlabeled adenosine or guanosine by the action of snake venom 5′-nucleotidase. […] PDE enzyme was present in quantities that yield <30% total hydrolysis of substrate (linear assay conditions). […] After centrifugation (750×g for 3 minutes) to sediment the charcoal, a sample of the supernatant was taken for radioactivity determination in a scintillation counter and the PDE activity was calculated. […]

For `COC(=O)N1C[C@@H](c2ccc(OC)c(OC3CCCC3)c2)[C@](C)(C(C)NC(C)=O)C1` (stereo partly drawn) [Example 14, 3-(S)-(1-Acetylaminoethyl)-4-(S)-(3-cyclopentyloxy-4-methoxyphenyl)-3-methylpyrrolidine-1-carboxic Acid Methyl Ester], the IC50 was 529 nM.
